Among the data in PubChem BioAssay AID2685 (National Center for Advancing Translational Sciences (NCATS), 2010) are cell number change and AC50 values, retold here.

Some of the results follow. Shown are side measurements of this screen, not its main read-out; they come without a call. Most of these compounds were active or inconclusive in the main read-out, so they are no random draw. Words in brackets tell the shape of the fitted curve; partial curves, single points and poor fits give uncertain potencies.

The assay in a line: qHTS Assay for Lipid Storage Modulators in Drosophila S3 Cells.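 On cell number change: cells counted by Cell Tracker Red CMTPX staining in the red channel.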 Particulars: BODIPY lipid droplet fluorescence, 18-24 h; for cell number change: measured here: cell count max response, cells fed with added oleic acid. An outline of the steps: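 Drosophila S3 cells loaded with oleic acid (400 uM, as added) and compounds at several concentrations; lipid droplets imaged by 488-nm laser-scanning cytometry, 500–530 nm intensity and object ratio to cell channel. Percent activity normalized to 20 uM Triacsin C.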
A general note: In qHTS, concentration-response curves come from the screen itself.

Setting [1] is: measured here: cell number channel AC50, cells fed with added oleic acid.
Where [2] appears, read: measured here: lipid fluorescence (Fed channel) AC50, cells fed with added oleic acid.

The term AC50 denotes the midpoint of the concentration-response curve, whichever way the signal moves. Low readings indicate activity at low concentration, high ones activity only at high concentration. With `CC1CCc2cc(F)ccc2N1C(=O)CCl` (stereo not drawn), the cell number change amounted to 2.16%. Under setting [1], the AC50 is 1.3 µM [falling, partial curve]. Under setting [2], the AC50 was 1.46 µM [falling, full curve].
Regarding `O=C(CCCCCN1C(=O)[C@@H]2Cc3ccccc3CN2C1=O)NCCc1ccccc1`, the cell number change was -4.72%. In addition, under setting [1], the AC50 was 5.8 µM [rising, single point].
As for `CC(C)c1cc(N2CCOCC2)n2ncc(-c3ccccc3)c2n1`, the cell number change stood at 5.67%.
For `O=C(O)C1CC=CCC1C(=O)NCCc1csc(-c2ccccc2)n1` (stereo not drawn), the cell number change came out at 21.9%. Further, the AC50 under setting [2] was 0.651 µM [rising, full curve, poor fit].
Regarding `Cc1ccc(NC(=O)C2CCC(CNC(=O)[C@@H]3Cc4ccccc4CN3)CC2)cc1` (stereo partly drawn), the cell number change worked out at 31.1%. Besides, the AC50 under setting [1] is 32.6 µM [rising, single point].
Turning to `CC12CCC(=O)N1C(C(=O)OCC(=O)Nc1cccc(Br)c1)CS2` (stereo not drawn), the cell number change is -12.5%. Also, under setting [2], the half-maximal activity concentration (AC50) is 29.1 µM [falling, single point].
In the case of `COC(c1ccccc1)c1nnc(CCC(=O)N(C)CCCC2CCCC2)o1` (stereo not drawn), the cell number change is -46.5%. The AC50 under setting [1] is 23.1 µM [falling, partial curve, poor fit].
`CCOc1ccc(CCNC(=O)C(C)n2nc(C)c3c(C)n(-c4ccccc4)nc3c2=O)cc1` (stereo not drawn): the cell number change is -12.4%. Besides, the AC50 under setting [2] was 16.4 µM [falling, single point].
As to `CCn1c(SCC(=O)Nc2nnc(C)s2)nnc1C(C)NC(=O)c1ccccc1` (stereo not drawn), the cell number change came to 22.6%.
On to `CCN(CC)CCSc1nnc2c3ccccc3n(Cc3ccccc3)c2n1`, for which the cell number change came out at 4.97%. In addition, the AC50 under setting [2] was 0.00517 µM [rising, full curve, poor fit].
As to `N/C(=N\OC(=O)Cc1ccc([N+](=O)[O-])cc1)c1ccccn1`, the cell number change turned out to be 51.4%. Further, the AC50 under setting [1] was 8.2 µM [rising, partial curve]. Also, the AC50 under setting [2] was 29.1 µM [rising, single point].
As for `CCC1CCc2c(n(C)c3ccccc3c2=O)O1` (stereo not drawn), the cell number change is -3.54%. Besides, the AC50 under setting [2] is 2.31 µM [rising, full curve].
As for `O=C(c1ccc(CS(=O)(=O)c2ccc(Br)cc2)o1)N1CCN(c2ccccn2)CC1`, the cell number change is -1.98%. Further, the AC50 under setting [2] is 7.31 µM [rising, partial curve].
For `Cc1ccc(CSc2nc3c(c(SCC(=O)O)n2)CCCC3)cc1`, the cell number change is 18.4%. The AC50 under setting [2] was 18.4 µM [falling, single point].
On to `Cc1nn(Cc2cccc(C(=O)Nc3ccn(Cc4ccccc4)n3)c2)c(C)c1[N+](=O)[O-]`, for which the cell number change was 32.6%. Further, under setting [1], the AC50 was 1.84 µM [rising, full curve, poor fit]. Moreover, under setting [2], the AC50 was 0.58 µM [rising, single point].
In the case of `CCCN(C(=O)C1CC(=O)N(c2ccccc2C(C)CC)C1)C1CCS(=O)(=O)C1` (stereo not drawn), the cell number change came out at 10.2%. In addition, under setting [2], the half-maximal activity concentration (AC50) was 0.461 µM [rising, full curve, poor fit].
On to `COc1cc(O)oc1C=Nc1ccc(C(=O)O)cc1`, for which the cell number change was 6.15%.
As to `O=C(Cc1ccc(S(=O)(=O)N2CCOCC2)s1)Nc1cc(C(F)(F)F)cc(C(F)(F)F)c1`, the cell number change amounted to 4.03%. Besides, the AC50 under setting [1] is 1.64 µM [falling, partial curve]. Also, the AC50 under setting [2] is 1.84 µM [falling, partial curve].
On to `O=C(Nc1ccccc1F)C1CCCN1S(=O)(=O)c1ccc(Cl)cc1` (stereo not drawn), for which the cell number change is -8.25%. Further, the AC50 under setting [2] was 0.92 µM [falling, full curve, poor fit].
With `CCOC(=O)C1CCCN(Cc2nc(N)nc(Nc3ccc(C)cc3)n2)C1` (stereo not drawn), the AC50 runs as follows: under setting [1], 4.11 µM [rising, single point]; under setting [2], 2.91 µM [rising, partial curve].
For the molecule `CC(C)c1nc2sc3c(c2c(=O)[nH]1)CC(C)(C)OC3`, the cell number change came to 25.4%. In addition, under setting [1], the AC50 is 3.26 µM [rising, single point]. Further, the AC50 under setting [2] was 2.91 µM [rising, single point].
As for `Cc1c(NC(=O)CCSc2ccc(Cl)cc2)c(=O)n(-c2ccccc2)n1C`, the AC50 under setting [1] is 0.13 µM [falling, full curve, poor fit].
For the molecule `CC1CCN(S(=O)(=O)c2ccc3c(c2)N(CC(=O)NCc2cccnc2)C(=O)CS3)CC1`, the cell number change worked out at 15.5%. For the same molecule, the AC50 under setting [2] was 0.231 µM [rising, full curve, poor fit].
Regarding `FC(F)(F)c1ccccc1NC(=S)N1CCN(c2ncccn2)CC1`, the cell number change was found to be 15.6%. For the same molecule, the AC50 under setting [2] is 29.1 µM [rising, single point].
As to `C/C(CC(=O)Nc1ccc2c(c1)OCCO2)=N\NC(=O)c1ccccn1`, the cell number change is -7.51%. Moreover, under setting [2], the AC50 was 2.31 µM [falling, single point].
For `Cc1ccc(S(=O)(=O)N2CCCC(C(=O)N3CCN(C)CC3)C2)cc1` (stereo not drawn), under setting [2], the AC50 is 35.5 µM [rising, single point].
On to `Cc1ccc(-n2c(C)cc(C(=O)COC(=O)c3c(C)noc3C)c2C)cc1`, for which the cell number change is -26.9%. For the same molecule, the AC50 under setting [2] is 29.1 µM [falling, single point].
Consider `COc1cccc(-n2c(SCC(=O)NCC3CCCO3)nc3c([nH]c4ccccc43)c2=O)c1` (stereo not drawn), for which the cell number change came to 4.53%. The AC50 under setting [2] was 32.6 µM [falling, single point].
Consider `CN(CCNC(=O)C1CCC(=O)N(Cc2cccc(F)c2)C1)CCc1ccccc1` (stereo not drawn), for which the cell number change was 16.2%. For the same molecule, under setting [1], the AC50 is 4.61 µM [rising, single point].
Consider `CCCOn1c(OCC(C)C)nc2ccccc2c1=O`, for which the cell number change is -31.8%. The AC50 under setting [1] was 16.4 µM [falling, single point]. Moreover, the AC50 under setting [2] is 6.51 µM [rising, single point].
`Cc1nc(/C=[N+](\[O-])C(C)(C)/C=N/O)n(O)c1C`: the cell number change was -13%. In addition, the AC50 under setting [2] was 29.1 µM [falling, single point].
Consider `CCCc1nc2sc3c(c2c(=O)n1NC(=O)CCCl)CCCC3`, for which the cell number change is -36.9%. Under setting [1], the AC50 was 4.61 µM [falling, full curve]. Further, the AC50 under setting [2] was 4.11 µM [falling, full curve].
Consider `CCc1nnc(NC(=O)CCC(=O)N2CCN(Cc3ccc(C)cc3C)CC2)s1`, for which the cell number change was determined as 20.5%. Besides, the AC50 under setting [2] is 18.4 µM [falling, single point].
Turning to `COC(=O)C(C)n1cnc2c(nnn2Cc2ccc(Cl)cc2)c1=O` (stereo not drawn), the cell number change is -42.9%. For the same molecule, the AC50 under setting [2] was 0.517 µM [rising, single point].
Take `O=C(CNC(=O)c1cc(S(=O)(=O)N2CCCCC2)ccc1N1CCOCC1)Nc1ccc(F)c(F)c1`: the AC50 under setting [2] was 0.92 µM [rising, full curve, poor fit].
For `O=C(N/N=C/c1ccsc1)c1ccc2ccccc2n1`, the AC50 under setting [1] is 4.61 µM [rising, single point].
On to `Cc1ccc(CN2CC(C(=O)OCc3ccccc3Cl)CC2=O)cc1` (stereo not drawn), for which the AC50 under setting [2] is 6.51 µM [falling, single point].
Turning to `CCCC(C)c1nnc(NC(=O)CN2C(=O)c3ccccc3C2=O)s1` (stereo not drawn), the cell number change was -37.3%. For the same molecule, the AC50 under setting [1] was 32.6 µM [falling, single point]. In addition, the AC50 under setting [2] was 32.6 µM [falling, single point].
On to `Clc1ccc(-c2nnc3sc(Cc4cccs4)nn23)c(Cl)c1`, for which the cell number change is -10.5%. Moreover, the half-maximal activity concentration (AC50) under setting [2] is 4.11 µM [rising, single point].
As for `O=C(Nc1ccc(NC(=O)c2ccco2)cc1)c1ccco1`, the cell number change is -3.78%.
Same read-out and setting: next, `CCCc1cc(=O)[nH]c(SCC(=O)Nc2sccc2C#N)n1`: 34.2%.
With `CCn1c(C(=O)O)c(CC(=O)Nc2ccc(Br)cc2C)c2ccccc21`, the cell number change is -43%. Further, the concentration at half-maximal activity (AC50) under setting [1] was 25.9 µM [falling, single point].
In the case of `CCOC(=O)N1CCN(S(=O)(=O)c2ccc(C)c(C(=O)NC3CCCCC3)c2)CC1`, the AC50 under setting [1] was 0.92 µM [rising, partial curve].
As to `O=C1CSC(=S)N1/N=C/c1cc(Br)ccc1O`, the cell number change was determined as 1.68%.
Still for that read-out and setting: next, `C/C(=N\NC(=O)c1c(Cl)c(C)nn1C)c1cccc(NC(=O)COc2ccc(Cl)cc2)c1`: 19.9%.
For the molecule `COc1cccc(NC(=O)COC(=O)c2nc(Cl)ccc2Cl)c1`, under setting [2], the AC50 was 0.00461 µM [falling, full curve, poor fit].
As to `COc1cc2c(cc1NC(=O)COC(=O)[C@@H](NC(=O)c1ccccc1F)C(C)C)oc1ccccc12`, the cell number change was -12.2%. For the same molecule, the AC50 under setting [2] was 10.3 µM [falling, single point].
Regarding `Cc1ccc(NC(=O)c2cccs2)cc1NC(=O)c1cccnc1`, the cell number change is -57.1%. Further, the AC50 under setting [1] was 29.1 µM [falling, single point]. Besides, under setting [2], the AC50 is 29.1 µM [falling, single point].
As for `COC(=O)c1sc(C(C)(C)C)cc1CSc1ccccc1`, the cell number change was determined as 34%. Further, the AC50 under setting [2] was 9.2 µM [rising, partial curve, poor fit].
For `CC(C)CC(=O)N1CCN(S(=O)(=O)c2ccc3ccccc3c2)CC1`, the cell number change is -49.9%. For the same molecule, the AC50 under setting [1] was 29.1 µM [falling, single point].
With `Cc1c(OCc2nn[nH]n2)ccc2c3c(c(=O)oc12)CCC(C)C3` (stereo not drawn), the cell number change was -50.5%. Further, under setting [1], the AC50 is 29.1 µM [falling, single point]. Besides, the AC50 under setting [2] is 9.2 µM [falling, partial curve, poor fit].
On to `Cn1c(=O)n(C)c2cc(NC(=O)c3cc4ccccc4o3)ccc21`, for which the cell number change was -12.9%. Further, under setting [2], the AC50 was 0.116 µM [rising, full curve, poor fit].
Turning to `COC(=O)c1ccc(CNC(=O)C(NC(=O)c2ccco2)C(C)C)cc1` (stereo not drawn), the cell number change was 25.7%. Besides, the AC50 under setting [2] is 20.6 µM [rising, partial curve].
On to `Cc1ccc2ccc3cccc4ccc1c2c34`, for which the cell number change was -44.5%. The AC50 under setting [1] is 10.3 µM [falling, single point]. Also, the AC50 under setting [2] is 9.2 µM [falling, single point].
Take `Cc1cccc(NC(=O)CSc2nc3ccccc3c3nc(CCc4c(C)n[nH]c4C)nn23)c1`: the cell number change is -31.3%. Besides, the AC50 under setting [1] was 29.1 µM [falling, single point].
On to `O=C(CSc1n[nH]c(-c2ccncc2)n1)Nc1ccc(Br)cc1`, for which the cell number change was -20.3%. For the same molecule, the AC50 under setting [1] is 0.00411 µM [falling, full curve, poor fit].
For `CC(C)C(C(=O)NCc1ccco1)N(CC1CCCO1)C(=O)CNS(=O)(=O)c1ccc(F)cc1` (stereo not drawn), the cell number change was -7.69%. The AC50 under setting [2] was 0.58 µM [rising, partial curve].
With `O=c1[nH]c(C2CCN(S(=O)(=O)c3ccc(C(F)(F)F)cc3)CC2)nc2c1nnn2Cc1ccc(F)cc1`, the cell number change came to 13.9%. Also, the AC50 under setting [2] is 0.58 µM [rising, single point].
